In this assay the target is human plasma derived FXIa (human) (UniProt P03951). Briefly: direct coating ELISA, IgG. In general terms: ELISA stands for enzyme-linked immunosorbent assay.

Sequences of proteins named here, by UniProt entry; tags and fusion partners are left off. A change or cut given only in a name is not applied to a line headed by its entry.
UniProt P03951: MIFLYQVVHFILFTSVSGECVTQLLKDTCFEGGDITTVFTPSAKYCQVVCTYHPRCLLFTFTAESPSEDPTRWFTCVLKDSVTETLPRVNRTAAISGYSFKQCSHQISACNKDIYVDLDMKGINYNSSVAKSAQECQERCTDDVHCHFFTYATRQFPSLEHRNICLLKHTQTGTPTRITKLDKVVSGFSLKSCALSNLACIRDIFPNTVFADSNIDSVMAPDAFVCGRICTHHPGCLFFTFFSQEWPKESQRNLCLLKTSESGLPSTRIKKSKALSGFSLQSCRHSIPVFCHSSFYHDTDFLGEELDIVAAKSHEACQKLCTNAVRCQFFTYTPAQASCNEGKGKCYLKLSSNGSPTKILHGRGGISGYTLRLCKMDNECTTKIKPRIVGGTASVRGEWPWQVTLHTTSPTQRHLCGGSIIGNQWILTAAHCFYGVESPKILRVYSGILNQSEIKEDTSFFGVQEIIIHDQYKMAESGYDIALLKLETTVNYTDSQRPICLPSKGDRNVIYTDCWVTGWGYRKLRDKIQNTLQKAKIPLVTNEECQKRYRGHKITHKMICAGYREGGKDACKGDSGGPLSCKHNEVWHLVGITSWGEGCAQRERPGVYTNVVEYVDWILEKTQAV

The source of these data is US20190330372A1.

No constants are given. Whether binding was seen depends on the method and setting. Some entries that bind do so weakly or less than the wild type.

B1: NOV1090 (IgG) (antibody, V domains shown)
VH: QVQLLESGGGLVQPGGSLRLSCAASGFTFSTAAMSWVRQAPGKGLEWVSGISGSGSSTYYADSVKGRFTISRDNSKNTLYLQMNSLRAEDTAVYYCARELSYLYSGYYFDYWGQGTLVTVSS
VL: DIVLTQPPSVSGAPGQRVTISCSGSSSNIGSNDVSWYQQLPGTAPKLLIYKNYNRPSGVPDRFSGSKSGTSASLAITGLQAEDEADYYCSAWDQRQFDVVFGGGTKLTVLG
With B1, the binding result is listed as “binds”.

B2: AM2 (IgG) (antibody, V domains shown)
VH: QVQLLESGGGLVQPGGSLRLSCAASGFTFSTAAMSWVRQAPGKGLEWVSSIEYYDTDTHYADSVKGRFTISRDNSKNTLYLQMNSLRAEDTAVYYCARELSYLYSGYYFDYWGQGTLVTVSS
VL: DIVLTQPPSVSGAPGQRVTISCSGSSSNIGSNDVSWYQQLPGTAPKLLIYKNYNRPSGVPDRFSGSKSGTSASLAITGLQAEDEADYYCSAWDQRQFDVVFGGGTKLTVLG
Consider B2, for which the binding result is “binds”.

B3: AM1 (IgG) (antibody, V domains shown)
VH: QVQLLESGGGLVQPGGSLRLSCAASGFTFSTAAMSWVRQAPGKGLEWVSTIDSWGDDTDYADSVKGRFTISRDNSKNTLYLQMNSLRAEDTAVYYCARELSYLYSGYYFDYWGQGTLVTVSS
VL: DIVLTQPPSVSGAPGQRVTISCSGSSSNIGSNDVSWYQQLPGTAPKLLIYKNYNRPSGVPDRFSGSKSGTSASLAITGLQAEDEADYYCSAWDQRQFDVVFGGGTKLTVLG
For B3, the binding result is reported as “binds”.
